Assay results from PMC11206525, “Structural Design, Anticancer Evaluation, and Molecular Docking of Newly Synthesized Ni(II) Complexes with ONS-Donor Dithiocarbazate Ligands” (Molecules, 2024).

Tested on: human breast cancer cell line MCF-7
Experiment: MTT cytotoxicity assay, breast cancer MCF-7 cells
Assay type: cell-based
Conditions: SI = IC50 in normal cells (MCF-10A)/IC50 in tumor cells (MCF-7)
Description: The measurement was performed using the MTT assay in cultures treated with increasing concentrations.
The effect of the compounds applied to breast cancer MCF-7 cells and breast epithelial MCF-10A cells was evaluated by measuring 3-(4,5-dimethylthiazol-2-yl)-2,5-diphenyl tetrazolium bromide (MTT) (Invitrogen, Waltham, MA, USA). All compounds were diluted in dimethylsulfoxide (DMSO) with a final DMSO concentration of 0.01% (0.01 mL/100 mL × 100 = 0.01% means 0.01 mL of DMSO to 99.99 mL of water) in all groups and untreated controls. Cells were seeded in 96-well plates at a density of 5 × 10^3 cells per well and incubated with compounds diluted in serial concentrations ranging from 0.29 µM to 150 µM. After 24, 48, and 72 h at 37 °C and 5% CO2, 10 µL of MTT (5 mg/mL) was added to each well and incubated for 4 h at 37 °C. The supernatant was then removed, and 100 µL/well of DMSO was added to dissolve any deposited formazan. The optical density was measured at 570 nm using a microplate reader (DR-200B-NM_Kasuaki, Tokyo, Japan).

C=CCSC1=NN=C(C)c2ccccc2[O][Ni]([P](c2ccccc2)(c2ccccc2)c2ccccc2)[S]1 [(1), [Ni(L^1)PPh3]]
SI (selectivity index) (48 h): 1.25 | SI (selectivity index) (72 h): 1.57
